In US20050038113A1, “Valproic acid and derivatives for the combinatorial therapeutic treatment of human cancers and for the treatment of tumor metastasis and minimal residual disease” (G2M Cancer Drugs AG, priority 2001, published 2005):
At least one compound was matched to its structure with a doubt left.

System: PML-RAR expressing leukemic cells
Assay: survival of mice suffering from acute promyelocytic leukemia
Assay type: in vivo
Conditions: single agent: retinoic acid pellets subcutaneously; VPA 400 mg/kg I.P. every 12 hours
Protocol: Mice that developed leukemia after inoculation with PML-RAR expressing cells were sacrificed. Single-cell suspensions of spleenocytes were prepared, and secondary recipient mice were reinoculated with 10^7 cells.
The numbers in parentheses indicate the number of mice in the representative experiment shown.

CC1=C(/C=C/C(C)=C/C=C/C(C)=C/C(=O)O)C(C)(C)CCC1 [Retinoic acid]
survival of leukemic mice: strong extension of survival
